Experimental data reported in PubChem BioAssay AID2685 (National Center for Advancing Translational Sciences (NCATS), 2010).
The campaign covered roughly 320,000 compounds. About 2,100 (0.66%) were called active. The inconclusive results got no clear call from the source; some entries with a clear call stand among them for comparison. Calls follow the shape of the dose curve; as a rule, active = well fitted inhibition curve with a large enough effect in the signal ratio, with a control signal flat (not every such curve was filed as active); inconclusive = small, poorly fitted or top-dose-only effect, or effect the other way, or a change in a side signal; inactive = flat fitted curve, though single readings scatter; the % refers to the signal ratio. Potencies of inconclusive entries are doubtful fits and often do not repeat.

Assay: qHTS Assay for Lipid Storage Modulators in Drosophila S3 Cells
Conditions: BODIPY lipid droplet fluorescence, 18-24 h, cells fed with added oleic acid; lipid storage change, negative = inhibition: at 46.1 µM (top of the series) unless noted
Procedure, shortened: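 Laser-scanning cytometry quantifies lipid droplet accumulation (500–530 nm total intensity; droplet/cell object ratio) in oleic acid-fed (400 uM added) Drosophila S3 cells treated with a concentration series. 20 uM Triacsin C defined 100% inhibition.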
% is scaled to controls: 0 for no effect and ±100 for the full control effect; potency is read from the fitted curve at half-maximal effect.

Lipid storage change, negative = inhibition, inconclusive:
CNC(=O)C(=O)NCCCN1CCOCC1 3.34%
Cc1nc([N+](=O)[O-])c(N2CCN(C)CC2)n1Cc1ccccc1 -7.61%
O=C(Nc1cccc(Cl)c1)O/N=C\c1ccncc1 -31.3%
Cc1cc(C)n2nc(C(=O)OCC(=O)N3CC(C)CC(C)C3)nc2n1 (stereo unspecified) 0.543%
Fc1ccc(CNc2nc(-c3cccnc3)nc3ccccc23)cc1 -183%
COc1ccc(CCNC(=O)c2ccc(NC(=O)CC3SC(N4CCCC4)=NC3=O)cc2)cc1 (stereo unspecified) 309%
Cc1nnc(NC(=O)c2ccc3c(c2)OCO3)s1 22.5%
CCOc1ccc(OCCSc2nc3ccccc3n2CC(=O)O)cc1 29.4%
N#Cc1nc(-c2cccc3ccccc23)oc1NCCN1CCOCC1 18%
O=c1[nH]c2cc(NCCO)c([N+](=O)[O-])cc2[nH]1 7.53%
Oc1ccccc1C1=Nc2nc3ccccc3n2C(c2ccccc2)C1 (stereo unspecified) 18.5%
Cn1c(SCc2c(Cl)cccc2Cl)nnc1-c1cccs1 30.4%
COc1cccc(NC(=O)NCc2ccccc2F)c1 12.8%
COc1ccc2c(c1)c(C(=O)O)c(C)n2-c1ccc(Cl)cc1 12.3%
O=C(N1CCCCCC1)n1c(Cc2ccccc2)nc2ccccc21 -8.61%
CCOC(=O)C1=C(COC(=O)Cc2ccc(OC)c(OC)c2)NC(=O)NC1C (stereo unspecified) -22.5%
CCCCC(=O)NC(c1ccccc1Cl)c1c(O)ccc2ccccc12 (stereo unspecified) 11.2%
CCN(CC(=O)Nc1cccc(C#N)c1)CC(=O)Nc1cccc(OC)c1 48.6%
CCOP(=O)(NC(c1ccccc1)c1nc2ccccc2[nH]c1=O)OCC (stereo unspecified) 12.7%
Cc1ccc(C(=O)NCCNC(=O)CN2CCOCC2)cc1 31.3%
Cc1cc(/C=C2/SC(=O)NC2=O)c(C)n1-c1ccc(N2CCOCC2)cc1 -35.6%
Cn1ccc(NC(=O)c2ccc(Cl)cc2)n1 -4.06%
COc1ccc([N+](=O)[O-])cc1NCC(=O)c1ccc(C)cc1 16.3%
Cc1cc(C)c(OCC(=O)Nc2ccccc2N2CCCCC2)c(C)c1
CCN(CC)CCCn1c(C)cc2c(c1=O)C(c1cccc(Cl)c1)C(C#N)=C(N)O2 (stereo unspecified) 0.0628%
CN(C)/C=C(/C(=O)c1ccc(F)cc1)S(=O)(=O)c1ccc(F)cc1 24.1%
Cc1ccc(NC(=O)CCS(=O)(=O)c2cccc3nonc23)cc1Cl -100%
COc1ccc(C(=O)Cc2cnn(-c3ccccc3)c2)c(O)c1 63.9%
CCCCc1ccc(NC(=O)c2ccc(N(C)S(C)(=O)=O)cc2)cc1 0.726%
CCOC(=O)C1=NN(C(C)=O)C2C(=O)N(CC)C(=O)C12 (stereo unspecified) -24.9%
COc1ccc(-c2cc(CC3(C(=O)O)CCN(C(=O)OC(C)(C)C)CC3)on2)c(OC)c1 23.5%
O=C(NNC(=O)c1cc(-c2ccc(Cl)cc2Cl)nc2ccccc12)Nc1ccccc1 -36.1%
OC(CN1C2=NCCCN2c2ccccc21)c1ccc(Cl)cc1 (stereo unspecified) 11% [at 9.22 µM]
CC1=NN(Cc2c(C)nn(Cc3ccccc3)c2C)C(C)(C)C1 -16.4%
COc1ccc(NC(=O)CN(c2ccc(OC)c(Cl)c2)S(=O)(=O)c2ccccc2)c(OC)c1 -40.8%
O=C(OCc1c(Cl)cccc1Cl)c1ccncc1 -29.6%
COc1ccc(NC(=O)CNC(=O)c2nn(-c3ccc(OC)c(OC)c3)c(=O)c3ccccc23)c(OC)c1 -55.8%
O=C(Nc1nc2n(n1)C(c1ccccc1)CC(c1ccc(Cl)cc1)N2)c1ccco1 (stereo unspecified) 11.2%
Cc1csc(/C(=N\O)c2csc(C)n2)n1 -41.1%
CCN(CC)CCOC(=O)/C=C/c1ccccc1OC 42.3%
CCC(CC)c1nnc(NC(=O)c2ccc3c(c2)OCO3)s1 73.5%
CC(Sc1ccc(S(=O)(=O)N2CCOCC2)cn1)C(=O)Nc1ccc(Cl)cc1Cl (stereo unspecified) -83.5%
O=C(CCN1C(=O)C2CC=CCC2C1=O)Nc1cccc(S(=O)(=O)N2CCCCC2)c1 (stereo unspecified) -49.2%
Cc1cccc(-c2nnc(SCC#N)n2-c2ccccc2)c1 23.2%
CCOc1ccc(OCCN2C(=O)c3ccccc3C2=O)cc1 -100%

Lipid storage change, negative = inhibition, inactive:
Cc1cc(Nc2ccc(Cl)cc2)nc(-c2ccccc2O)n1 -7.33%
Cc1ccccc1/C=C/c1cc[n+](C)cc1 5.44%
CCOC(=O)/C(N=O)=C(\O)C1CCN(C(=O)OCC)CC1 -5.07%

Potency, inconclusive:
CCOc1ccc(N2C(=O)CC(N3CCOCC3)C2=O)cc1 (stereo unspecified) 0.184 µM [activator, full curve, poor fit]
Cc1c(C(=O)O)sc(=S)n1-c1ccccc1 23.1 µM [falling, single point]
O=C(NCCc1ccccc1)C1CCCN(C(=O)NC2CCCCC2)C1 (stereo unspecified) 0.13 µM [activator, full curve, poor fit]
COc1ccc(Br)cc1CNC(=O)CCN1C(=O)COc2ccccc21 23.1 µM [activator, single point]
O=C(NC(NC(=S)Nc1c(Cl)cc(Cl)cc1Cl)C(Cl)(Cl)Cl)OCc1ccccc1 (stereo unspecified) 20.6 µM [falling, single point]
CCOc1ccccc1N1CCN(C(=O)c2cccs2)CC1 6.51 µM [activator, single point]
CCc1c(C)nc2ncnn2c1Nc1ccc(C)cc1 20.6 µM [falling, single point]
Cc1occc1-c1nnc(SCC(=O)N2CCCc3ccccc32)n1Cc1ccco1 1.84 µM [activator, partial curve]
O=C(Nc1ccc2c(c1)OCO2)c1cc2ncc(Br)cn2n1 7.31 µM [activator, partial curve]
CN(C)CCNC(=O)Cn1c(=O)c2cccn2c2ccc(F)cc21 6.51 µM [activator, full curve, poor fit]
Cn1c(SCC(=O)N2CCCc3ccccc32)nnc1-c1ccccc1 6.51 µM [activator, single point]
COc1ccc(/C=C/C(=O)Oc2ccc(/C=N/NC(=O)c3ccncc3)cc2)cc1 0.58 µM [activator, single point]
CSc1ccc(C(=O)C2CCCN(C(=O)CN3CCOC3=O)C2)cc1 (stereo unspecified) 20.6 µM [activator, single point]
CCOC(=O)N1CCN(C(=O)C2CCN(S(=O)(=O)c3ccc(Cl)cc3)CC2)CC1 0.461 µM [falling, single point]
C=CCSc1nc2c(c(=N)n1CC=C)C1CCCC1S2 (stereo unspecified) 16.4 µM [falling, single point]
Cc1cc(C)nc(NC(=O)C(C)C)n1 32.6 µM [falling, single point]
COc1ccccc1C(=O)COC(=O)CNC(=O)c1ccc(Br)o1 0.731 µM [activator, full curve]
C=CCn1c(C(C)(C)C)nc2ccccc21 6.51 µM [falling, single point]
CCn1c2ccccc2c2cc(CC(N)=O)ccc21 16.4 µM [activator, partial curve, poor fit]
CCOC(=O)CCNC(=O)Nc1ccc2nc(C)n(Cc3ccc(Cl)cc3)c(=O)c2c1 0.82 µM [activator, full curve]
CC1CN(C(=O)COc2ccc3c(-c4ccccc4)cc(=O)oc3c2)CC(C)O1 (stereo unspecified) 0.0651 µM [falling, full curve, poor fit]
CC12CC3CC(C)(C1)CC(C(=O)N1CCN(C(=O)C4CCCO4)CC1)(C3)C2 (stereo unspecified) 29.1 µM [activator, single point]
O=C(c1ccc(Cl)c(S(=O)(=O)N2CCc3ccccc3C2)c1)N1CCN(c2ccccc2)CC1 3.26 µM [activator, single point]
COc1ccc(Cl)cc1C1=CC(=O)C[C@H](c2ccc(F)cc2)C1 0.517 µM [activator, partial curve]
Cc1ccc(C)c(Cn2nnc3c(=O)[nH]c(C4CCN(S(=O)(=O)c5ccc(S(=O)(=O)N(C)C)cc5)CC4)nc32)c1 16.4 µM [activator, single point]
COc1ccc(/C=N/NC(=O)CSc2nnc(CCCc3ccc(OC)c(C)c3)o2)cc1 13 µM [activator, partial curve]
CCN(CC)S(=O)(=O)c1ccc(NC(=O)c2ccccn2)cc1 2.06 µM [activator, partial curve]
Cc1sc2ncn(CC(=O)NCCCN3CC(C)CC(C)C3)c(=O)c2c1S(=O)(=O)N1CC(C)CC(C)C1 (stereo unspecified) 0.58 µM [activator, single point]

Reprinted at random: four entries already listed.
Potency, inconclusive:
CCOc1ccc(N2C(=O)CC(N3CCOCC3)C2=O)cc1 (stereo unspecified) 0.184 µM [activator, full curve, poor fit]
Cc1cc(C)nc(NC(=O)C(C)C)n1 32.6 µM [falling, single point]
CSc1ccc(C(=O)C2CCCN(C(=O)CN3CCOC3=O)C2)cc1 (stereo unspecified) 20.6 µM [activator, single point]
Cc1ccc(C)c(Cn2nnc3c(=O)[nH]c(C4CCN(S(=O)(=O)c5ccc(S(=O)(=O)N(C)C)cc5)CC4)nc32)c1 16.4 µM [activator, single point]
